Measurements reported in PubChem BioAssay AID504764 (Drosophila RNAi Screening Center, 2011).
Aim: 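Genes whose knock-down alters Notch-dependent transcription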 (primary screen). System: Drosophila Kc167 cells. Knock-down reagent: long dsRNA against Drosophila genes. Timing: about 5 days (4 days dsRNA, then 24 h after transfection). Challenge: transfection of constitutively active membrane-tethered Notch lacking the extracellular domain, read 24 h later. Measured: 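Firefly luciferase from an E(spl)m3 reporter with active Notch, plus control-promoter and uninduced reporter wells for normalisation; unnormalised counts, duplicate wells a and b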. Scale: induced reporter light, run 1, well a and induced reporter light, run 1, well b: higher = more light from the Notch target reporter with active Notch; control promoter light, run 1, well a and control promoter light, run 1, well b: higher = more light from the viral control promoter (cell number, transfection, viability); uninduced reporter light, run 1, well a: higher = more light from the Notch target reporter without active Notch. Active means: 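Hit if the duplicate-averaged log2 ratio of induced to control-promoter light gives a plate-wise z beyond ±2, or induced to uninduced beyond ±1.8; weak-control or discordant-duplicate wells dropped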. Calls: active = modifier hit (raised or lowered Notch signal); inactive = not a hit.
In all, the deposit lists about 22,000 reagents; this is a random part of those that have a named target and a result. Over the whole deposit, 403 (1.9%) are marked active. 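Unnormalised raw counts per well; ratio z-scores behind the hit calls and whether each hit raises or lowers signal are not deposited.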 The numbers tell different reagents against one gene apart. Not stated in the record: the amount of reagent.

target gene	reagent	induced reporter light, run 1, well a	induced reporter light, run 1, well b	control promoter light, run 1, well a	control promoter light, run 1, well b	uninduced reporter light, run 1, well a	call
BHD	1	1.19e5	1.28e5	71660	54865	8832	inactive
Osi2	1	70645	63010	70470	75175	4800	inactive
CG34187 (retired record)	1	1.74e5	2.25e5	2.72e5	3.01e5	17705	inactive
Ctns	1	1.41e5	1.64e5	2.13e5	2.14e5	11550	inactive
Gr22f	1	1.15e5	97330	1.48e5	1.58e5	8020	inactive
CG3491	1	1.39e5	1.32e5	1.53e5	1.44e5	9520	inactive
Or47a	1	1.16e5	1.01e5	1.46e5	1.19e5	9978	inactive
Z600	1	2.23e5	1.45e5	2.02e5	1.92e5	12070	inactive
CG3191	1	1.56e5	2.17e5	2.11e5	2.34e5	13100	inactive
Cyp4ae1	1	1.81e5	2.04e5	2.88e5	2.62e5	12265	inactive
Irk3	1	1.42e5	82295	1.14e5	1.60e5	6778	inactive
brk	1	36495	28520	43745	48575	7815	inactive
Cyp4aa1	1	87860	1.13e5	1.54e5	1.42e5	6265	inactive
p24-1	1	1.25e5	1.33e5	2.18e5	2.20e5	9090	inactive
CG7497	1	1.42e5	1.49e5	1.05e5	1.28e5	8735	inactive
aft	1	1.23e5	1.14e5	2.07e5	2.05e5	9080	inactive
mRpS28	1	33205	32145	28325	31565	3815	inactive
CG13192	1	98755	99085	1.28e5	1.01e5	8580	inactive
Ssadh	1	1.78e5	2.18e5	2.12e5	1.87e5	11340	inactive
CG32189	1	1.74e5	1.82e5	3.21e5	2.55e5	18080	inactive
CG14220	1	2.18e5	2.25e5	1.59e5	1.59e5	8982	active
CG14132	1	1.48e5	1.07e5	1.78e5	1.89e5	7005	inactive
RpL35A	1	31185	33560	31730	28140	2020	inactive
mRpL9	1	1.86e5	1.83e5	2.27e5	2.18e5	16370	inactive
CG1850	1	2.00e5	1.59e5	2.25e5	1.95e5	13725	inactive
Camta	1	89560	78590	58735	44820	8940	inactive
Camta	2	1.55e5	1.21e5	1.93e5	1.80e5	13120	inactive
Camta	3	2.24e5	1.47e5	1.37e5	1.59e5	15840	inactive
CG5787	1	1.74e5	1.65e5	1.66e5	1.49e5	16805	inactive
CG5455	1	1.92e5	2.27e5	2.17e5	2.39e5	15950	inactive
D12	1	2.53e5	2.90e5	2.38e5	2.66e5	19115	inactive
CG14309	1	1.89e5	1.49e5	1.65e5	1.86e5	10755	inactive
CG5065	1	1.44e5	1.10e5	1.28e5	1.72e5	14000	inactive

Laid out differently: entries from further up
{"target gene":"mRpL9","reagent":1,"induced reporter light, run 1, well a":1.86e5,"induced reporter light, run 1, well b":1.83e5,"control promoter light, run 1, well a":2.27e5,"control promoter light, run 1, well b":2.18e5,"uninduced reporter light, run 1, well a":16370,"call":"inactive"}
{"target gene":"CG1850","reagent":1,"induced reporter light, run 1, well a":2.00e5,"induced reporter light, run 1, well b":1.59e5,"control promoter light, run 1, well a":2.25e5,"control promoter light, run 1, well b":1.95e5,"uninduced reporter light, run 1, well a":13725,"call":"inactive"}
{"target gene":"Camta","reagent":1,"induced reporter light, run 1, well a":89560,"induced reporter light, run 1, well b":78590,"control promoter light, run 1, well a":58735,"control promoter light, run 1, well b":44820,"uninduced reporter light, run 1, well a":8940,"call":"inactive"}
{"target gene":"Camta","reagent":2,"induced reporter light, run 1, well a":1.55e5,"induced reporter light, run 1, well b":1.21e5,"control promoter light, run 1, well a":1.93e5,"control promoter light, run 1, well b":1.80e5,"uninduced reporter light, run 1, well a":13120,"call":"inactive"}

The listing continues.
target gene	reagent	induced reporter light, run 1, well a	induced reporter light, run 1, well b	control promoter light, run 1, well a	control promoter light, run 1, well b	uninduced reporter light, run 1, well a	call
Ppox	1	1.66e5	1.58e5	2.05e5	1.93e5	12230	inactive
Rheb	1	43765	51765	29020	29165	4180	inactive
rudhira	1	11980	11310	11940	13155	5605	inactive
Crtp	1	1.35e5	1.29e5	1.14e5	1.42e5	10580	inactive
Rpn9	1	900	855	732	878	95	inactive
kin17	1	66905	59080	63495	60550	3345	inactive
CG8319	1	74135	73610	72340	59880	5435	inactive
qless	1	1.66e5	1.91e5	2.41e5	2.74e5	15435	inactive
qless	2	1.23e5	1.25e5	2.04e5	1.70e5	10382	inactive
CG33490	1	1.48e5	1.28e5	85205	37685	10900	inactive
CCT8	1	26755	28340	28085	20655	2820	inactive
TwdlV	1	67535	54390	61560	61080	6335	inactive
CG11384	1	1.43e5	1.36e5	2.37e5	3.10e5	11530	inactive
COX7B	1	2.31e5	2.36e5	2.54e5	2.46e5	6220	inactive
CngB	1	1.33e5	1.87e5	1.13e5	1.22e5	10465	inactive
CG14105	1	1.68e5	1.43e5	2.19e5	1.94e5	10150	inactive
geko	1	2.09e5	1.70e5	2.64e5	1.75e5	8990	inactive
geko	2	1.62e5	2.13e5	2.31e5	1.95e5	8360	inactive
